The entries are a selection whose mix differs from that of the whole data set. Potency and affinity values are given separately.
System: Escherichia coli
Settings: Concentration 20 uM; ASSAY_TEST Inhibition of Bacterial Growth; detection method Absorption (OD600); MEDIA CAMHB; plate type 384well; NBS; CORNING #3640; time 18 hr

With `C[N+]1(C)CCC(OC(=O)C(O)(c2ccccc2)C2CCCC2)C1.[Br-]` (stereo unspecified) [GLYCOPYRRONIUM BROMIDE] as the compound, how does the Inhibition read?
The Inhibition was 3.03%.

— ChEMBL document CHEMBL4513141, “CO-ADD screening of NIH (USA) - Clinical Collection” (2021)
